Laboratory results reported in paper PMC3663483 (Nature, 2012).

System: mTOR effectors 4EBP1, p70S6K1/2 and AKT
Assay: Western blot of downstream mTOR effectors in PC3 cells
Format: cell-based, human
Conditions: PP242 2.5 μM, rapamycin 50 nM, 3-h treatment

SMILES: CC(C)n1nc(-c2cc3cc(O)ccc3[nH]2)c2c(N)ncnc21 [PP242]
- activity of downstream mTOR effectors 4EBP1, p70S6K1/2 and AKT: significantly inhibits
